This data set relates to RT-112 cells. The data set can be described thus: cDNA microarray analysis of differential gene expression. The following applies: 4 μM, 8 h, log2 |fold change| ≥ 1, P < 0.05. It is filed as cell-based.

Consider one molecule from paper PMC5041986 (Oncotarget, 2016).

Take `CCN1CCN(c2ccc(Nc3ncnc(N(C)C(=O)Nc4c(Cl)c(OC)c(Cl)c(OC)c4Cl)n3)cc2)CC1` [MPT0L145]: the “number of downregulated genes” value is listed as 426 and the “number of upregulated genes” value came out at 465.
